From PubChem BioAssay AID588590 (National Center for Advancing Translational Sciences (NCATS), 2011)
Among all 390,000 compounds or so, about 4,000 (1%) were called active. The inconclusive results got no clear call from the source; some entries with a clear call stand among them for comparison. The call rests on the fitted dose curve; in most records, active means well fitted inhibition curve with a large enough effect; inconclusive means small, poorly fitted or top-dose-only effect, or another doubt; inactive means no such curve, though single readings can be large or run the other way. Potencies beside an inconclusive call are fits to weak or partial responses and may not hold up.

Sequences of proteins named here, by UniProt entry; tags and fusion partners are left off. A change or cut given only in a name is not applied to a line headed by its entry.
UniProt Q9UNA4: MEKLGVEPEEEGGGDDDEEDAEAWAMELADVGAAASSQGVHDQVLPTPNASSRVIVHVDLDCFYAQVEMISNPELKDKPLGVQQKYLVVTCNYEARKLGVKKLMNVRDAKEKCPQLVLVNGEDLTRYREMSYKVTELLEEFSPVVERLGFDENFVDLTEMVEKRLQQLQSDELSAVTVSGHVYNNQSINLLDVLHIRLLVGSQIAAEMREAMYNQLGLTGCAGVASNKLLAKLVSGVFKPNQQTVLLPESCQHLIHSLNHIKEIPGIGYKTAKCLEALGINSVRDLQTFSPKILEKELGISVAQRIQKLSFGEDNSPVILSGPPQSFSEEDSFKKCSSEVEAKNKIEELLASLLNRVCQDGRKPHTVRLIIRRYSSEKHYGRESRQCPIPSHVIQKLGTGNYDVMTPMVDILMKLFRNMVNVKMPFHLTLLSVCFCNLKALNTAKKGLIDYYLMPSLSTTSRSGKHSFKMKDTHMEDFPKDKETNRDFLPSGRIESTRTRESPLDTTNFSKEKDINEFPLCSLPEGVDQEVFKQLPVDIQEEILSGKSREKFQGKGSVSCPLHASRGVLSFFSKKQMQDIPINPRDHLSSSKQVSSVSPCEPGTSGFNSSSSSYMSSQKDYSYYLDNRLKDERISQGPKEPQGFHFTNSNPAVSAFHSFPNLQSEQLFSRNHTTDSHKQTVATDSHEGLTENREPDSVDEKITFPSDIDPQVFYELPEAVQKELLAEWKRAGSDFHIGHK

Target: DNA polymerase iota (Homo sapiens) (UniProt Q9UNA4)
Assay: qHTS for Inhibitors of Polymerase Iota
Details: Pol iota fluorescent replication assay, 10 min; series mostly up to 115 µM; activity, negative = inhibition: at the top concentration
Outline: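 Pol iota at 10 nM preincubated 15 min with compounds at room temperature; reaction started with fluorescent substrate, 50 nM final. Fluorescence read kinetically at 0 and 10 min; buffer-only wells as negative control.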
Potency means the concentration at half of the fitted maximal effect.

Potency, active:
CC(=O)Oc1ccc(C(=O)Nc2ccc(C3(C#N)CCCC3)cc2)cc1 39.8 µM

Potency, inconclusive:
O=C(Cn1ncc(Cl)c(Cl)c1=O)NC(=O)NC1CCCCC1 50.1 µM [inhibitor, partial curve], Cc1cccc(CN2CCN(Cc3cnn(-c4ccccc4F)c3)CC2CCO)n1 (configuration not stated) 10 µM [inhibitor, partial curve, poor fit], COC(=O)c1cc(C(=O)c2cc(F)ccc2O)cn2c(=O)c3c(C)c(C)sc3nc12 39.8 µM [inhibitor, full curve], CCCc1nnc(NC(=O)CSc2nnc3c4ccccc4n(CC)c3n2)s1 89.1 µM [inhibitor, single point], Brc1ccc(-c2nn3c(-c4ccco4)nnc3s2)o1 15.8 µM [inhibitor, partial curve, poor fit], COc1cc(NC(=O)c2ccc3c(SCC(=O)O)c4c(nc3c2)CCCC4)cc(OC)c1OC 31.6 µM [inhibitor, full curve, poor fit], O=C(N/N=C/c1cccs1)c1cc(-c2ccc(Cl)s2)[nH]n1 56.2 µM [inhibitor, partial curve, poor fit], CCN1C(=O)/C(=C\N(C(C)=O)c2ccccc2)OC1=S 39.8 µM [inhibitor, partial curve, poor fit], CCOC(=O)c1cnc2c(ccc3ccccc32)c1NCCN(C)C 25.1 µM [inhibitor, full curve, poor fit], Cc1cccc(Cc2ncc(C(F)(F)F)cc2Cl)c1 28.2 µM [inhibitor, single point], Cc1ccc(-c2noc(CN(C(=O)c3cccs3)C(C)C)n2)cc1 112 µM [inhibitor, partial curve, poor fit], CCN(CC(=O)Nc1ccc(NC(C)=O)cc1)C(=O)CSc1ncnc2sc(C)c(C)c12 22.4 µM [inhibitor, partial curve], CCCCN(CCCC)C(=O)c1nsnc1-c1ccccc1O 79.4 µM [inhibitor, single point], C=CCN1CCc2c(cc(O)c(O)c2Cl)C(c2ccccc2)C1 (configuration not stated) 28.2 µM [inhibitor, partial curve, poor fit], NC(=O)c1c(NC(=O)CS(=O)(=O)c2ccc(Cl)cc2)sc2c1CCCC2 12.6 µM [inhibitor, partial curve, poor fit], O=[N+]([O-])c1ccc(/C=C/C2=NN(c3ccccc3)C(c3ccco3)C2)o1 (configuration not stated) 31.6 µM [inhibitor, full curve], CC1(C)CC(=O)c2cc(OCC(=O)N3CCN(c4ccccc4F)CC3)ccc2O1 50.1 µM [inhibitor, partial curve, poor fit], Cc1cc(C(Br)(Br)Br)nc2ccccc12 50.1 µM [inhibitor, partial curve, poor fit], COc1ccc(Cc2nnc(NC(=O)C3CC(=O)N(c4ccccc4C)C3)s2)cc1OC (configuration not stated) 17.8 µM [inhibitor, partial curve, poor fit], COc1nc(N/N=C/c2ccccc2F)nc(N2CCCCC2)n1 112 µM [inhibitor, single point], CCN(CC(=O)Nc1ccc(NC(C)=O)cc1)C(=O)/C=C/c1ccc(C)o1 89.1 µM [inhibitor, single point], O=C(c1ccc(Br)o1)N1N=C(c2ccc(Cl)cc2)CC1c1ccco1 (configuration not stated) 20 µM [inhibitor, partial curve, poor fit], CCOC(=O)NC(N(O)c1cccc(Cl)c1)C(Cl)(Cl)Cl (configuration not stated) 20 µM [inhibitor, single point], COc1ccc(CCNC(=O)c2cc(-c3ccc(C)c(C)c3O)n[nH]2)cc1OC 112 µM [inhibitor, single point], O=C(O)COc1ccccc1C(Nc1cccnc1)c1cc(Cl)c2cccnc2c1O (configuration not stated) 11.2 µM [inhibitor, partial curve, poor fit], CC(=O)NC(c1ccco1)c1cc(Cl)c2ccccc2c1O (configuration not stated) 15.8 µM [inhibitor, single point], CC(=O)N1c2ccccc2NC(=O)C1(C)C 126 µM [inhibitor, single point], N#CC(=C1CCCC1)c1nc(-c2cc3ccccc3oc2=O)cs1 56.2 µM [inhibitor, partial curve, poor fit], O=C(O)c1cc(O)c2c(c1)C(=O)c1cc(O)cc(O)c1C2=O 12.6 µM [inhibitor, full curve, poor fit]

Potency, inactive:
CCCN1CCN(CCCNC(=O)c2cc3c(s2)-c2c(C)cccc2OC3)CC1

activity, negative = inhibition, inactive:
COc1ccc([N+](=O)[O-])cc1NC(=O)Nc1ccc(OC)c(OC)c1 -28.7%, COc1cccc(CNC(=O)CCc2c(C)nn(-c3ccc(N4CCCC4)nn3)c2C)c1 18.6%, N#Cc1c(Nc2ccccc2)sc(C(=O)c2ccccc2)c1N 4.53%, Cc1cc(/C=C/c2ccccc2)nc2ccccc12 8.16%, CCc1ccc(N2CC(C(=O)Nc3nc4ccc(S(C)(=O)=O)cc4s3)CC2=O)cc1 (configuration not stated) 7.81%, COc1ccccc1C(=O)Nc1ccccc1OCc1cc(=O)n2cc(C)sc2n1 24.7%, COC(=O)c1ccc(NC(=O)C(=O)NCCc2csc3nc(-c4ccccc4F)nn23)cc1 9.51%, C(=C\c1ccc2ccccc2n1)/c1cccnc1 0.391%, CN1CCN(C(c2ccc(Cl)cc2)c2cc(Cl)c3cccnc3c2O)CC1 (configuration not stated) 54.5%, Cc1cc[n+](-c2[nH]c(=O)sc2/C=N/N=C(\[O-])c2ccccc2)cc1C 81.7%, COc1ccc(CCNC(=O)COC(=O)CNS(=O)(=O)c2ccc(SC)c([N+](=O)[O-])c2)cc1 -26.7%
